A short description of the data set: general procedure: solution-phase peptide synthesis; HATU/DIPEA. The settings on record: late stage modification step.
Where [1] appears, read: hydrochloride, benzenesulfonate, oxalate.

As for “5-(((E)-4-((7S,10S,Z)-7-isopropyl-4,4-dimethyl-2,5,8,12-tetraoxo-9-oxa-3,6,13-triaza-1(4,2)-thiazolacyclotetradecaphane-10-yl)but-3-en-1-yl)thio)-5-oxopentanoic Acid”, under setting [1], the step yield is 41% yield.
Still for that read-out and setting: the result for “(R)—S-((E)-4-((7S,10S)-7-isopropyl-4,4-dimethyl-2,5,8,12-tetraoxo-9-oxa-16-thia-3,6,13,18-tetraazabicyclo[13.2.1]octadeca-1(17),15(18)-dien-10-yl)but-3-en-1-yl) 2-((tert-butoxycarbonyl)amino)-3-methylbutanethioate” reads 80% yield.
Take “(R)—S-((E)-4-((7S,10S)-7-isopropyl-4,4-dimethyl-2,5,8,12-tetraoxo-9-oxa-16-thia-3,6,13,18-tetraazabicyclo[13.2.1]octadeca-1(17),15(18)-dien-10-yl)but-3-en-1-yl) 2-amino-3-methylbutanethioate Hydrochloride”: for the setting “hydrochloride”, the step yield is given as 26% yield.
Regarding “(R)—S-((E)-4-((7S,10S)-7-isopropyl-4,4-dimethyl-2,5,8,12-tetraoxo-9-oxa-16-thia-3,6,13,18-tetraazabicyclo[13.2.1]octadeca-1(17),15(18)-dien-10-yl)but-3-en-1-yl) 2-aminopropanethioate Oxalate”, the step yield (oxalate) turned out to be 55% yield.
For “(S)—S-((E)-4-((7S,10S)-7-isopropyl-4,4-dimethyl-2,5,8,12-tetraoxo-9-oxa-16-thia-3,6,13,18-tetraazabicyclo[13.2.1]octadeca-1(17),15(18)-dien-10-yl)but-3-en-1-yl) 2-((tert-butoxycarbonyl)amino)-3-methylbutanethioate”, under setting [1], the step yield is reported as 89% yield.
Same read-out and setting: the result for “(S)—S-((E)-4-((7S,10S)-7-isopropyl-4,4-dimethyl-2,5,8,12-tetraoxo-9-oxa-16-thia-3,6,13,18-tetraazabicyclo[13.2.1]octadeca-1(17),15(18)-dien-10-yl)but-3-en-1-yl) 2-((tert-butoxycarbonyl)amino)propanethioate” reads 51% yield.
As to “(S)—S-((E)-4-((7S,10S)-7-isopropyl-4,4-dimethyl-2,5,8,12-tetraoxo-9-oxa-16-thia-3,6,13,18-tetraazabicyclo[13.2.1]octadeca-1(17),15(18)-dien-10-yl)but-3-en-1-yl) 2-amino-3-methylbutanethioate Benzenesulfonate”, where the note is “benzenesulfonate”, the “purity (crude or final not stated)” value was 98% purity and the step yield amounted to 90% yield.
“(S)—S-((E)-4-((7S,10S)-7-isopropyl-4,4-dimethyl-2,5,8,12-tetraoxo-9-oxa-16-thia-3,6,13,18-tetraazabicyclo[13.2.1]octadeca-1(17),15(18)-dien-10-yl)but-3-en-1-yl) 2-amino-3-methylbutanethioate Hydrochloride”: the step yield (hydrochloride) came out at 100% yield.
Take “(S)—S-((E)-4-((7S,10S)-7-isopropyl-4,4-dimethyl-2,5,8,12-tetraoxo-9-oxa-16-thia-3,6,13,18-tetraazabicyclo[13.2.1]octadeca-1(17),15(18)-dien-10-yl)but-3-en-1-yl) 2-aminopropanethioate Oxalate”: the step yield (oxalate) was 74% yield.
The substance “S-((E)-4-((7S,10S)-7-isopropyl-4,4-dimethyl-2,5,8,12-tetraoxo-9-oxa-16-thia-3,6,13,18-tetraazabicyclo[13.2.1]octadeca-1(17),15(18)-dien-10-yl)but-3-en-1-yl) 2-(dimethylamino)ethanethioate” returned a step yield under setting [1] of 29% yield.
Turning to “S-((E)-4-((7S,10S,Z)-7-isopropyl-4,4-dimethyl-2,5,8,12-tetraoxo-9-oxa-3,6,13-triaza-1(4,2)-thiazolacyclotetradecaphane-10-yl)but-3-en-1-yl) pyridine-3-carbothioate”, the step yield under setting [1] was found to be 32% yield.

(Values after US11203602B2 (OnKure, Inc., priority 2016, dated 2021).)
